Data as given in PubChem BioAssay AID652243 (Drosophila RNAi Screening Center, 2013)

Screen: 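Fly genes required for human androgen receptor driven transcription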 (primary screen)
System: Drosophila S2R+ cells
Reagent: long dsRNA against Drosophila genes
Time to read-out: 72 h (48 h, then 24 h hormone)
Treatment: synthetic androgen R1881 at 10 nM for 24 h
Detection: 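Per-well raw luminescence of the androgen-driven firefly reporter and of the Renilla control, two replicates each, without normalisation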
Scale: firefly reporter light: higher = more light from androgen-responsive reporter; Renilla control light: higher = more constitutive control signal (cell number, transfection)
Hit rule: 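Hit when the log firefly-to-Renilla ratio dropped or increased by a fixed fold versus the mean of GFP or LacZ controls across duplicate plates; lowering cut given as 1.5 and as 3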
Meaning of the calls: active = hit: reporter lowered or raised; inactive = no hit
The deposit covers about 24,000 reagents; shown is a random part of those that have a named target and a result. Of all reagents, 246 (1%) were called active. 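Plates not normalised; calls are printed but the firefly/Renilla ratio behind them is not deposited; fold cut for lowering reported inconsistently.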 Raw values are not corrected between plates. Reagents against one gene are numbered here. Names joined by + are all predicted targets of the reagent. The record does not give: the amount of reagent.

Target gene	reagent	firefly reporter light, replicate 1	firefly reporter light, replicate 2	Renilla control light, replicate 1	Renilla control light, replicate 2	Call
mRpS6 (mitochondrial ribosomal protein S6)	1	1.16e5	1.18e5	1.28e6	1.69e6	inactive
mRpS6 (mitochondrial ribosomal protein S6)	2	4.49e5	3.86e5	1.18e6	1.17e6	inactive
CG33124	1	81488	39321	3.06e5	2.34e5	inactive
ETHR	1	3.69e5	3.82e5	3.64e6	3.37e6	inactive
ETHR	2	7.45e5	1.17e6	1.27e6	1.27e6	inactive
CR43087 + CG34002	1	3.34e5	3.12e5	7.06e5	9.87e5	inactive
Vlet (Valette)	1	1.04e5	99913	8.87e5	9.34e5	inactive
Vlet (Valette)	2	4.80e5	6.06e5	7.19e5	7.74e5	inactive
CG7514	1	1.08e5	97713	2.13e6	1.50e6	inactive
CG7514	2	7.17e5	9.03e5	8.70e5	8.97e5	inactive
CG15602	1	4.02e5	4.35e5	3.99e6	2.89e6	inactive
CG15602	2	7.36e5	7.52e5	5.78e5	6.67e5	inactive
CG42369	1	1.52e5	1.47e5	1.29e6	1.26e6	inactive
MED4 (Mediator complex subunit 4)	1	5.67e5	4.08e5	1.23e6	1.10e6	inactive
MED4 (Mediator complex subunit 4)	2	2.16e5	2.07e5	5.55e5	4.05e5	inactive
Obsc (Obscurin)	1	5.65e5	5.68e5	3.42e6	3.78e6	inactive
Obsc (Obscurin)	2	1.17e6	7.48e5	1.74e6	1.63e6	inactive
Obsc (Obscurin)	3	1.40e5	1.69e5	1.32e6	9.24e5	inactive
Obsc (Obscurin)	4	1.69e5	76721	8.95e5	8.38e5	inactive
Obsc (Obscurin)	5	4.89e5	6.83e5	1.25e6	2.24e6	inactive
Mipp2 (Multiple inositol polyphosphate phosphatase 2)	1	91145	1.59e5	7.44e5	6.80e5	inactive
Mipp2 (Multiple inositol polyphosphate phosphatase 2)	2					inactive
Mipp2 (Multiple inositol polyphosphate phosphatase 2)	3					inactive
Cap-D2 (CAP-D2 condensin subunit)	1	86808	68366	9.24e5	5.52e5	inactive
Cap-D2 (CAP-D2 condensin subunit)	2	7.21e5	5.79e5	7.85e5	9.23e5	inactive
CG32448	1	1.05e6	7.81e5	1.70e6	1.90e6	inactive
CG32267	1	7.96e5	7.31e5	4.47e5	5.34e5	inactive
CG32267	2	6.61e5	6.75e5	8.40e5	8.14e5	inactive
Cdc45 (Cell division cycle 45)	1	36736	30272	3.61e5	3.19e5	inactive
Cdc45 (Cell division cycle 45)	2	1.26e5	1.49e5	2.73e6	1.93e6	inactive
mst (misato)	1	1.03e5	1.65e5	4.43e5	3.77e5	inactive
PGRP-SA (Peptidoglycan recognition protein SA)	1	3.88e5	4.69e5	3.84e6	3.37e6	inactive
mRpL13 (mitochondrial ribosomal protein L13)	1	2.07e5	1.52e5	1.50e6	1.82e6	inactive
mRpL13 (mitochondrial ribosomal protein L13)	2	1.19e6	5.22e5	1.18e6	8.86e5	inactive
htl (heartless)	1	65658	48573	3.18e5	4.88e5	inactive
htl (heartless)	2	5.27e5	6.50e5	1.19e6	1.26e6	inactive
CG34008	1	8.39e5	7.60e5	1.34e6	1.66e6	inactive
CG4872	1	71346	83234	6.35e5	4.99e5	inactive
Jhedup (Juvenile hormone esterase duplication)	1	78711	82417	1.47e6	1.47e6	inactive
bmm (brummer)	1	9.34e5	6.52e5	2.29e6	2.30e6	inactive
CG7102	1	6.41e5	7.87e5	2.59e6	2.31e6	inactive
CG7102	2	1.27e5	1.91e5	9.30e5	1.11e6	inactive

Reprinted from above for reference:
Target gene	reagent	firefly reporter light, replicate 1	firefly reporter light, replicate 2	Renilla control light, replicate 1	Renilla control light, replicate 2	Call
CG42369	1	1.52e5	1.47e5	1.29e6	1.26e6	inactive
MED4 (Mediator complex subunit 4)	1	5.67e5	4.08e5	1.23e6	1.10e6	inactive
MED4 (Mediator complex subunit 4)	2	2.16e5	2.07e5	5.55e5	4.05e5	inactive
Obsc (Obscurin)	1	5.65e5	5.68e5	3.42e6	3.78e6	inactive
Obsc (Obscurin)	2	1.17e6	7.48e5	1.74e6	1.63e6	inactive
Obsc (Obscurin)	3	1.40e5	1.69e5	1.32e6	9.24e5	inactive

The listing continues.
Target gene	reagent	firefly reporter light, replicate 1	firefly reporter light, replicate 2	Renilla control light, replicate 1	Renilla control light, replicate 2	Call
pkaap	1	1.01e5	1.79e5	1.31e6	2.40e6	inactive
pkaap	2					inactive
pkaap	3					inactive
CheB93a (Chemosensory protein B 93a)	1	1.97e5	1.99e5	3.49e6	3.44e6	inactive
Taldo (Transaldolase)	1	8.57e5	8.71e5	1.25e6	1.27e6	inactive
Taldo (Transaldolase)	2	3.76e5	3.57e5	8.02e5	7.58e5	inactive
CG3652	1	1.52e5	1.28e5	1.06e6	1.05e6	inactive
Mrp5 (Multidrug resistance protein 5)	1	2.17e5	2.55e5	2.19e6	2.93e6	inactive
Mrp5 (Multidrug resistance protein 5)	2	3.44e5	2.82e5	1.68e6	1.99e6	inactive
Mrp5 (Multidrug resistance protein 5)	3	8.33e5	9.11e5	1.02e6	1.00e6	inactive
CG12011	1	1.27e5	1.63e5	2.62e6	2.28e6	inactive
CG12011	2	2.27e5	2.96e5	4.53e5	6.26e5	inactive
pon (partner of numb)	1	2.88e5	2.13e5	2.64e6	2.29e6	inactive
CG14785	1	80701	89006	4.07e5	3.03e5	inactive
CG6415	1	1.23e6	1.31e6	2.20e6	1.91e6	inactive
CG6415	2	4.96e5	4.83e5	1.21e6	1.24e6	inactive
CR17024 (pseudo)	1	3.41e5	3.02e5	1.85e6	2.41e6	inactive
Rph (Rabphilin)	1	74811	68604	1.99e6	2.19e6	active
Rph (Rabphilin)	2	2.64e5	1.72e5	1.12e6	3.59e5	inactive
CG6508	1	1.74e5	1.97e5	1.40e6	1.39e6	inactive
CG15449	1	2.74e5	1.58e5	9.48e5	6.94e5	inactive
Ms (Myosuppressin)	1	1.77e5	1.88e5	8.55e5	1.04e6	inactive
Ms (Myosuppressin)	2	4.72e5	3.46e5	1.38e6	1.26e6	inactive
smog	1	82909	80584	7.83e5	6.44e5	inactive
smog	2	77688	1.17e5	5.26e5	6.29e5	active
smog	3	5.47e5	6.64e5	6.34e5	6.35e5	inactive
Nep4 (Neprilysin 4)	1	55407	67876	7.74e5	8.09e5	inactive
Adgf-D (Adenosine deaminase-related growth factor D)	1	1.21e5	1.22e5	1.84e6	1.64e6	inactive
CG11961	1	4.15e5	5.82e5	4.94e5	4.64e5	inactive
Rnp4F (RNA-binding protein 4F)	1	55932	91926	7.97e5	6.05e5	inactive
Rnp4F (RNA-binding protein 4F)	2	1.03e5	1.69e5	2.03e5	2.27e5	inactive
Ccz1 (Caffeine, calcium, zinc sensitivity 1)	1	1.29e5	1.17e5	8.13e5	1.02e6	inactive
